Data as given in PubChem BioAssay AID1508597 (Cure First, 2020)

Test: 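Survival screen with siRNA in ovarian cancer cells derived from patients, with or without rucaparib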 (primary screen)
Cells: human ovarian carcinoma lines grown from tumours: OCI-P5x (papillary serous) and OCI-C5x (clear cell)
Reagents: siRNA pool against human genes, 1.25 pmol siRNA per well
Timing: 72 h or 96 h, depending on the cell culture
Challenge: rucaparib 20 µM (about IC30) or vehicle, present until read-out
Rucaparib or vehicle: Rucaparib
Cell line: OCI-C5x (clear cell)
Detection: 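ATP luminescence measured at 72 or 96 h according to the culture, then normalised and expressed as percent viability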
Direction: viability, normalised: higher = more viable cells remaining
Hit rule: 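Active when normalised viability falls below 80 percent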
Meaning of the calls: active = viability under 80%; inactive = viability 80% or more
Shown is a random part of the about 2,100 reagents, under one of the conditions tested. 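Calls flag viability under 80% in either arm, not effects specific to rucaparib; the reference for percent is not stated.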 Some reagents were tested in more than one well and are listed for each. Not stated in the record: the 100% reference.

| target gene | technical replicate | viability, normalised (%) | outcome |
| --- | --- | --- | --- |
| HDAC11 | 1 | 32.4 | active |
| HDAC11 | 2 | 43.4 | active |
| HDAC11 | 3 | 38.4 | active |
| CDKL3 | 1 | 72.8 | active |
| CDKL3 | 2 | 46.3 | active |
| CDKL3 | 3 | 84.6 | inactive |
| MPP1 | 1 | 68.8 | active |
| MPP1 | 2 | 66.6 | active |
| MPP1 | 3 | 48.7 | active |
| MAP3K2 | 1 | 98.4 | inactive |
| MAP3K2 | 2 | 55.2 | active |
| MAP3K2 | 3 | 70.3 | active |
| FAN1 | 1 | 58.4 | active |
| FAN1 | 2 | 71.5 | active |
| FAN1 | 3 | 51.7 | active |
| RECQL | 1 | 58.9 | active |
| RECQL | 1 | 50.8 | active |
| RECQL | 2 | 41.6 | active |
| RECQL | 2 | 54.8 | active |
| RECQL | 3 | 56.2 | active |
| RECQL | 3 | 37.6 | active |

Taken from above:
Entry for MAP3K2, technical replicate 3 in “viability, normalised (%)”: 70.3
CDKL3, technical replicate 1, outcome: active
Under “viability, normalised (%)”, MPP1, technical replicate 1 shows 68.8
Under “viability, normalised (%)”, MAP3K2, technical replicate 1 shows 98.4
Value of FAN1, technical replicate 3 under “outcome”: active
Value for MPP1, technical replicate 3 under “outcome”: active

More reagents follow.
| target gene | technical replicate | viability, normalised (%) | outcome |
| --- | --- | --- | --- |
| PLK1 | 1 | 40.7 | active |
| PLK1 | 2 | 28.4 | active |
| PLK1 | 3 | 29.2 | active |
| TERF2 | 1 | 95 | inactive |
| TERF2 | 1 | 51.6 | active |
| TERF2 | 2 | 55.2 | active |
| TERF2 | 2 | 83.2 | inactive |
| TERF2 | 3 | 53.8 | active |
| TERF2 | 3 | 64.5 | active |
| CDK5 | 1 | 35.1 | active |
| CDK5 | 2 | 31.7 | active |
| CDK5 | 3 | 31.3 | active |
| CDK19 | 1 | 41.7 | active |
| CDK19 | 2 | 43.2 | active |
| CDK19 | 3 | 40.7 | active |
| TXNDC9 | 1 | 64.1 | active |
| TXNDC9 | 2 | 47.6 | active |
| TXNDC9 | 3 | 64.8 | active |
| PIAS1 | 1 | 26.6 | active |
| PIAS1 | 2 | 23.6 | active |
| PIAS1 | 3 | 18.9 | active |
| TCF7L1 | 1 | 65.2 | active |
| TCF7L1 | 2 | 54 | active |
| TCF7L1 | 3 | 42.2 | active |
| MED10 | 1 | 61.3 | active |
| MED10 | 2 | 54.4 | active |
| MED10 | 3 | 58 | active |
| KAT6A | 1 | 34.8 | active |
| KAT6A | 2 | 45.4 | active |
| KAT6A | 3 | 44.5 | active |
| CDK13 | 1 | 42.3 | active |
| CDK13 | 2 | 48.1 | active |
| CDK13 | 3 | 52.3 | active |
| TRMT112 | 1 | 83.4 | inactive |
| TRMT112 | 2 | 45.1 | active |
| TRMT112 | 3 | 50.2 | active |
